{"source": "patent US20260224592A1", "about": "“COMPOSITIONS AND METHODS FOR TREATING SEVERE […]” (SHENZHEN HIGHTIDE BIOPHARMACEUTICAL LTD., priority 2023, published 2026)", "origin": "cited, not measured here", "tested_on": "subjects with HTG", "details": "cited from earlier work", "note": "Like-named read-outs stand apart in the source and are kept apart here. At least one compound was matched to its structure with a doubt left."}
{"smiles": "CC/C=C\\C/C=C\\C/C=C\\C/C=C\\C/C=C\\CCCC(=O)OCC", "note": "[Vascepa]", "values": [{"measurement": "placebo-corrected median percent change in TG", "setting": "high dose group", "value": "−21.5", "unit": "%"}, {"measurement": "placebo-corrected median percent change in TG", "setting": "low dose group", "value": "−10.1", "unit": "%"}]}
